Laboratory results: PubChem BioAssay AID1259302 (Sanger Institute, 2017)
This is a random part of 160 reagents tested. 122 of all reagents (76%) count as active. 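Most active calls come from the trametinib arm; viability under BYL719 or cetuximab treatment is not printed.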 The numbers tell different reagents against one gene apart. Further read-outs or replicates are left out here. Not given: the amount of reagent, the time to read-out.

Purpose: 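Retest in SW1116 cells of candidate synthetic-lethal pairs of kinase and drug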 (follow-up of hits)
Cells: human SW1116 colorectal cancer cells
Reagents: single siRNA against human genes
Challenge: anchor drugs BYL719 at 1 µM, cetuximab at 5 µg/ml or trametinib at 10 nM, each compared with DMSO vehicle; exposure time not given
Measured: 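Viability relative to a pooled non-targeting control siRNA, averaged over replicates; for each anchor drug a synergy score weighs the joint effect against siRNA and drug alone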
Reading the numbers: synergy score with trametinib and synergy score with BYL719 and synergy score with cetuximab: higher = stronger synthetic lethal interaction with the drug
Call rule: 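An siRNA is called active if its synergy score is above 0.10 for at least one of BYL719, cetuximab or trametinib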

gene	reagent no.	synergy score with trametinib	synergy score with BYL719	synergy score with cetuximab	call
NLK	1	0.103	-0.0114	0.105	active
NLK	2	0.22	0.0021	0.108	active
NLK	3	0.127	-0.0929	0.0805	active
NLK	4	0.0824	-0.133	-0.0914	inactive
CHD4	1	0.0426	0.0228	0.0461	inactive
CHD4	2	0.262	-0.0556	0.23	active
CHD4	3	0.131	-0.171	0.0833	active
CHD4	4	0.171	-0.153	0.123	active
NR2F2	1	0.099	-0.19	-0.138	inactive
NR2F2	2	0.157	-0.054	0.0956	active
NR2F2	3	0.308	0.013	0.228	active
NR2F2	4	0.298	0.0522	0.147	active
MAPKAPK2	1	-0.133	-0.0747	-0.0552	inactive
MAPKAPK2	2	0.074	0.0599	0.0338	inactive
MAPKAPK2	3	0.277	0.149	0.193	active
MAPKAPK2	4	0.0501	0.00589	0.0301	inactive
RPS6KA4	1	0.176	0.0794	0.0588	active
RPS6KA4	2	0.156	-0.0388	0.0368	active
RPS6KA4	3	0.157	-0.0591	0.0391	active
RPS6KA4	4	0.0977	-0.14	-0.0185	inactive
HUNK	1	0.217	0.0193	0.0444	active
HUNK	2	0.163	-0.0527	0.0587	active
HUNK	3	0.26	0.112	0.0995	active
HUNK	4	0.334	0.153	0.141	active
GRK5	1	0.0275	0.0272	0.0335	inactive
GRK5	2	0.0839	-0.107	-0.0565	inactive
GRK5	3	0.326	0.0119	0.0521	active
GRK5	4	0.241	0.0565	0.0788	active
STK36	1	0.315	-0.0208	0.23	active
STK36	2	0.168	0.0139	0.0232	active
STK36	3	0.178	-0.0459	0.0163	active
STK36	4	-0.195	-0.135	-0.0471	inactive
BMPR2	1	-0.0505	-0.107	0.0314	inactive
BMPR2	2	0.267	-0.0885	0.122	active
BMPR2	3	0.146	-0.0647	0.0953	active
BMPR2	4	0.0508	-0.0241	-0.0697	inactive
EPHA6	1	0.314	-0.0447	0.164	active
EPHA6	2	0.264	0.0961	0.231	active
EPHA6	3	0.122	-0.111	0.0945	active
EPHA6	4	0.221	0.188	0.192	active
PAK1	1	0.22	-0.115	-0.0458	active
PAK1	2	0.129	-0.121	0.0289	active
PAK1	3	0.215	0.0343	0.0285	active
PAK1	4	0.224	-0.0171	0.0893	active
SYK	1	0.161	-0.0705	0.000821	active
SYK	2	0.257	-0.0065	0.0691	active
SYK	3	0.191	0.0304	0.094	active
SYK	4	0.148	-0.0228	0.061	active
PLK1	1	0.109	0.0594	0.113	active
PLK1	2	0.0378	-0.0802	-0.000752	inactive
PLK1	3	0.103	0.0671	0.0966	active
PLK1	4	0.068	-0.0355	0.0632	inactive
